In US20230219886A1, “NOVEL SELENO-NSAID ANALOGS AND USES THEREOF” (THE PENN STATE RESEARCH FOUNDATION, priority 2020, published 2023):
Some of these results come from one statement about several compounds together. At least one compound was matched to its structure with a doubt left.

Columns and labels:
[1] = test system: PANC-1, HT-29, DU-145 and H1299 human tumor cell lines; assay: MTT assay, panel of four human tumor cell lines; format: cell-based; conditions: 25 μM, 48 h, in at least one cell line
HT-29 (CRC) = assay: MTT cell viability assay, HT-29; conditions: HT-29, 5 μM
Procedure: Cell Culture Conditions. The cell lines were obtained from the American Type Culture Collection (ATCC). PANC-1 and Caco-2 cell lines were maintained in DMEM medium (Gibco); HT-29, HCT-116 and RKO cells were maintained in McCoy's 5A medium (Gibco); and DU-145 and H1299 cells were maintained in RPMI 1640 medium (Gibco), supplemented with 10% fetal bovine serum (FBS; Gibco) and 1% antibiotics (10.00 units/mL penicillin and 10.00 mg/mL streptomycin; Gibco). Cells were preserved in tissue culture flasks at 37° C. and 5% CO2. Culture medium was replaced every three days.
Cell Viability Assay. The effect of each compound on cell viability was tested using the MTT assay (81). Briefly, 9000 cells/well were grown in 96-well plates for 12 h. Then these cells were incubated with either DMSO (control) or nine different concentration between 0.01-50 μM of the test compounds for 24, 48, and 72 h. Three hours before the termination point, 20 μL of MTT were added to measure cellular viability. The resultant formazan crystals were dissolved in 50 μL of DMSO, and absorbance was measured at 570 nm and 630 nm wavelengths. IC50, GI50, TGI and LC50 values were calculated using OriginPro 8.5.1.
Evaluation of the antiproliferative activities of the novel molecules. […] These four cell lines were treated with each compound at three concentrations (5, 25 and 50 μM) for 48 h.

HT-29 cells = assay: Annexin V & Dead cell apoptosis assay; format: cell-based, human; conditions: HT29, 5 μM, 24 h
Procedure: Apoptosis assay. Induction of apoptosis after the treatment with compounds 1a and 6a were analyzed using Annexin V & Dead cell assay kit and Caspase 3/7 Assay kit (EMD Millipore, Billercia, Mass.) using Muse cell analyzer following manufacturer's protocol. Briefly, the HT-29 cells were plated in triplicates in a six-well plate at densities of 1×10^5 cells/well. Following day, the cells were treated with the compounds 1a and 6a and incubated for 48 h. At the end of the treatment duration, the cells were prepared following manufacturer's guidelines and the data were acquired using Muse 1.4 software.
Compounds 1a and 6a induced apoptosis in CRC cells. We further investigated whether the inhibition of cell cycle leads to apoptosis. In pursuit of this, HT29 cells were treated with 5 μM of the compounds 1a and 6a for indicated time intervals. Apoptosis was measured by using Annexin V & Dead cell assay kit and Caspase 3/7 Assay kit using Muse cell analyzer following manufacturer's protocol. The live cell population resided in the lower left quadrant and they start shifting towards the lower right quadrant (early apoptotic) or to upper right quadrant (late apoptotic/dead) after treatments. […] A similar trend was also observed after 6a treatment where the live cell population were decreased from <75% to <65% after 12 h and 24 h treatment, respectively.

C[Se]C(=O)CC1=C(C)/C(=C/c2ccc([S+](C)[O-])cc2)c2ccc(F)cc21 (stereo not shown) [Compound 6a, Se-methyl (Z)-2-(5-fluoro-2-methyl-1-(4-(methylsulfinyl)benzylidene)-1H-indenyl)ethaneselenoate]
reduction of the cell growth [1]: > 70%
inhibition in cell viability (HT-29 (CRC)): 75-80%
reduction of the cell growth (HT-29 (CRC); 48 h): > 70%
live cells (HT-29 cells): < 65%
